Experimental data: PubChem BioAssay AID652259 (Drosophila RNAi Screening Center, 2013)
Screen: 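Genome-wide hunt for genes that control Wingless pathway activity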 (primary screen). System: Drosophila clone 8 imaginal disc epithelial cells. Reagent: long dsRNA against Drosophila genes. Treatment: pathway stimulated by co-transfected Wingless expression plasmid. Measured: 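Dual luciferase reads per well after Wingless plasmid stimulation: reporter firefly light and Renilla control light; activity is firefly divided by Renilla, a ratio not deposited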. Reading the numbers: firefly reporter light: higher = more Wg reporter light, before normalisation; Renilla control light: higher = more transfected or surviving cells. Hit rule: 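a knock-down is a candidate when at least two out of four statistical tests show it departing from its plate mean; one test alone signals a weak candidate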. Calls: active = candidate regulator (raises or lowers reporter); inactive = not a candidate.
The screen tested about 22,000 reagents; this is an unselected part of those that have a named target and a result. In the full data, 233 (1.1%) were called active. 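Light values are raw, unnormalised plate reads; the ratio scores behind the reporter calls were not deposited.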 A number with no mark means an inactive call. The numbers tell different reagents against one gene apart. The record does not give: the amount of reagent, the time to read-out, the dose of the treatment.

The first 2 records, to show the layout:
| predicted target | reagent | reporter change call, replicate 1 | firefly reporter light, replicate 1 | firefly reporter light, replicate 2 | Renilla control light, replicate 1 | Renilla control light, replicate 2 |
| --- | --- | --- | --- | --- | --- | --- |
| AstA-R1 (Allatostatin A receptor 1) | 1 | – | 4930 | – | 1447 | – |
| AstA-R1 (Allatostatin A receptor 1) | 2 | – | 15906 | – | 11696 | – |

The list itself, repeating the preview:
| predicted target | reagent | reporter change call, replicate 1 | firefly reporter light, replicate 1 | firefly reporter light, replicate 2 | Renilla control light, replicate 1 | Renilla control light, replicate 2 |
| --- | --- | --- | --- | --- | --- | --- |
| AstA-R1 (Allatostatin A receptor 1) | 1 | – | 4930 | – | 1447 | – |
| AstA-R1 (Allatostatin A receptor 1) | 2 | – | 15906 | – | 11696 | – |
| CG16762 | 1 | – | 6068 | – | 2850 | – |
| CG8668 | 1 | – | 9112 | – | 4531 | – |
| ORY (Occludin-Related Y) | 1 | – | 8.70e5 | 9.37e5 | 3.95e5 | 4.35e5 |
| Vml (Vitelline membrane-like) | 1 | – | 4405 | – | 1430 | – |
| Vml (Vitelline membrane-like) | 2 | – | 33512 | – | 19292 | – |
| dpr6 (defective proboscis extension response 6) | 1 | – | 2821 | – | 1530 | – |
| dpr6 (defective proboscis extension response 6) | 2 | – | 8390 | – | 3618 | – |
| dpr6 (defective proboscis extension response 6) | 3 | – | 6490 | – | 1904 | – |
| CG32683 | 1 | – | 23341 | – | 10176 | – |
| CG32683 | 2 | – | 14213 | – | 10240 | – |
| CG32683 | 3 | – | 11850 | – | 10263 | – |
| CG15185 | 1 | – | 7653 | – | 1872 | – |
| mag (magro) | 1 | – | 4497 | – | 2605 | – |
| okr (okra) | 1 | – | 10320 | – | 3853 | – |
| Cyt-b5 (Cytochrome b5) | 1 | – | 14146 | – | 2646 | – |
| CG8665 | 1 | – | 4016 | 11749 | 1072 | 4278 |
| CG13364 | 1 | – | 24155 | – | 17072 | – |
| CG13364 | 2 | – | 16917 | – | 8960 | – |
| CG34299 | 1 | – | 5809 | – | 2442 | – |
| su(Hw) (suppressor of Hairy wing) | 1 | – | 4768 | – | 1879 | – |
| RpL39 (Ribosomal protein L39) | 1 | – | 4551 | 9014 | 632 | 2448 |
| CG2865 | 1 | – | 2485 | 5744 | 1344 | 3281 |
| CG2865 | 2 | Wg reporter activity raised (active) | 5056 | – | 466 | – |
| CG5381 | 1 | – | 2135 | 8893 | 1116 | 4005 |
| CkIIalpha-i3 (CKII-alpha subunit interactor-3) | 1 | – | 14712 | – | 4532 | – |
| Mrgn1 (Mahogunin ring finger 1) | 1 | – | 2176 | 6587 | 800 | 2241 |
| Fdx1 (Ferredoxin 1) | 1 | – | 9548 | – | 3875 | – |
